# Reference: PubChem BioAssay AID2685 (National Center for Advancing Translational Sciences (NCATS), 2010)
# Among all 320,000 compounds or so, about 2,100 (0.66%) were called active. The inconclusive results got no clear call from the source; some entries with a clear call stand among them for comparison. The call rests on the fitted dose curve; in most records, active means well fitted inhibition curve with a large enough effect in the signal ratio, with a control signal flat (not every such curve was filed as active); inconclusive means small, poorly fitted or top-dose-only effect, or effect the other way, or a change in a side signal; inactive means flat fitted curve, though single readings scatter; the % refers to the signal ratio. Potencies of inconclusive entries are doubtful fits and often do not repeat.
# Test: qHTS Assay for Lipid Storage Modulators in Drosophila S3 Cells
# Conditions: BODIPY lipid droplet fluorescence, 18-24 h, cells fed with added oleic acid; lipid storage change, negative = inhibition: at 46.1 µM (top of the series) unless noted
# Summary of the method: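 Drosophila S3 cells got compounds at several concentrations plus oleic acid (400 uM solution). Laser-scanning cytometry with 488 nm excitation read lipid droplets at 500-530 nm and cells at 575-640 nm. Percent activity was relative to 20 uM Triacsin C.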
# On the % scale 0 is the no-effect control and ±100 the full control effect; potency means the concentration at half of the fitted maximal effect.
SMILES,"lipid storage change, negative = inhibition",Potency
CCN(CC)CCn1c(SCC(=O)NCc2ccco2)nc2c(sc3ccccc32)c1=O,inconclusive: -20.2%,
COc1ccc(/C=C(\NC(=O)c2ccc(Cl)cc2)C(=O)NCCCN2CCOCC2)cc1OC,,"inconclusive: 116 nM [activator, single point]"
CC1CCCCC1NC(=O)CSc1ccc([N+](=O)[O-])cc1 (stereo unspecified),inconclusive: -23.8%,
CC1NC(=O)c2ccccc2-n2c1nc1cc(F)ccc1c2=O (stereo unspecified),inactive: -24.4%,
CC(=O)O[C@H]1CC[C@@]2(C)[C@@H](CC[C@@H]3[C@@H]2CC[C@]2(C)[C@@H](C(C)(C)O)C[C@@H]32)C1,inconclusive: -1.06%,
COC(=O)c1ccccc1-c1ccc(/C=N/NC(=O)c2cc3ccccc3o2)o1,inconclusive: 14.4%,
c1coc(C2Nc3ccccc3C3OCCC23)c1 (stereo unspecified),inconclusive: 105%,
Cc1ccc(NC(=O)CCCCCN2C(=O)[C@@H]3Cc4ccccc4CN3C2=O)cc1,,"inconclusive: 580 nM [activator, single point]"
CN(C(=O)CCNC(=O)Cn1cnc2ccccc2c1=O)c1ccccc1F,inconclusive: -70.5%,
CS(=O)(=O)N(CC(=O)Nc1cccnc1)c1ccc2c(c1)OCCO2,,"inconclusive: 7.3 nM [falling, full curve, poor fit]"
CC(C)CC(c1nnnn1Cc1ccc(F)cc1)N1CCC(C(N)=O)CC1 (stereo unspecified),inconclusive: -9.23%,
COC(=O)c1c(NC(=O)CN2C(=O)NC3(CCCCC3C)C2=O)sc2c1CCC2 (stereo unspecified),,active: 1840 nM
O=C(CSc1nc2ccccc2c(=O)[nH]1)N1CCN(c2ccccc2F)CC1,,"inconclusive: 1300 nM [falling, full curve]"
N/C(Cc1ccc([N+](=O)[O-])cc1)=N\OC(=O)C1CCCCC1,inconclusive: -54.5%,
O=C(NC1CCCCC1)c1cc2c(cc1Cl)N1CCCCCC1=NS2(=O)=O,inconclusive,
Cc1ccc(CNC(=O)N[C@@H](Cc2ccccc2)C(=O)O)cc1,inconclusive: 0.61%,
C/C=C/c1ccc(OCCN2CCc3ccccc3C2)c(OC)c1,inconclusive: 24.9%,
CC(=O)c1c(C)[nH]c(C(=O)Nc2nc(-c3ccc(Cl)cc3)cs2)c1C,inconclusive: -29.4%,
CSCCC(NC(=O)c1ccco1)C(=O)OCC(=O)N1c2ccccc2NC(=O)C1(C)C (stereo unspecified),,"inconclusive: 2060 nM [falling, partial curve]"
COc1ccc(C(=O)COC(=O)CCCN=C2NS(=O)(=O)c3ccccc32)c(OC)c1,,"inconclusive: 29100 nM [falling, single point]"
O=C(OC(C(=O)Nc1ccc(Cl)c(C(F)(F)F)c1)c1ccccc1)C1=COCCO1 (stereo unspecified),inconclusive: 15.7%,
COc1ccccc1/C=C/C=N/n1c(-c2ccncc2)n[nH]c1=S,,"inconclusive: 65.1 nM [activator, full curve, poor fit]"
COc1ccc(N2C(=O)C(Cl)=C(NCc3ccccc3)C2=O)cc1,,"inconclusive: 29100 nM [rising, single point]"
COCCn1c(C)cc(C(=O)COC(=O)C23CC4CC(CC(O)(C4)C2)C3)c1C,inconclusive: 7.56%,

# Record cards, as listed above.
# Cc1ccc(NC(=O)CCCCCN2C(=O)[C@@H]3Cc4ccccc4CN3C2=O)cc1 is listed with Potency: inconclusive: 580 nM [activator, single point]
# CC(C)CC(c1nnnn1Cc1ccc(F)cc1)N1CCC(C(N)=O)CC1 (stereo unspecified) is listed with lipid storage change, negative = inhibition: inconclusive: -9.23%
# CSCCC(NC(=O)c1ccco1)C(=O)OCC(=O)N1c2ccccc2NC(=O)C1(C)C (stereo unspecified) is listed with Potency: inconclusive: 2060 nM [falling, partial curve]
# CC1CCCCC1NC(=O)CSc1ccc([N+](=O)[O-])cc1 (stereo unspecified) is listed with lipid storage change, negative = inhibition: inconclusive: -23.8%

# (further entries)

SMILES,"lipid storage change, negative = inhibition",Potency
COc1ccc(/C=C/C(=O)C2C(=O)C=C(C)OC2=O)cc1O (stereo unspecified),,"inconclusive: 29100 nM [falling, single point]"
COc1ccccc1S(=O)(=O)Cc1ccc(C(=O)NCc2ccc3c(c2)OCO3)o1,,"inconclusive: 14600 nM [rising, partial curve]"
COc1ccc(N2CCN(C(c3cc4cc(C)ccc4[nH]c3=O)c3nnnn3Cc3ccccc3)CC2)cc1 (stereo unspecified),,"inconclusive: 23100 nM [activator, partial curve, poor fit]"
CC1CCN(S(=O)(=O)c2ccc(NC(=S)NC(=O)c3ccc(Cl)cc3)cc2)CC1,inconclusive: 10.5%,
CCOc1ccc(CCNC(=O)CCc2nnc3ccc(N4CCCC4)nn23)cc1OCC,inconclusive: -53.8%,
Cc1noc(C)c1CSc1nnc2ccccn12,inconclusive: -0.513%,
Cc1ccc(C)c(OC(=O)C2CSC3(C)CCC(=O)N23)c1C (stereo unspecified),inconclusive: -5.3%,
CCOC(=O)C1CCN(C(=O)COC(=O)c2nc3nc(C)cc(C)n3n2)CC1,,"inconclusive: 3660 nM [rising, partial curve, poor fit]"
CCOc1ccc(S(=O)(=O)Nc2cc(OC)c(OC)cc2C(=O)O)cc1,,"inconclusive: 29100 nM [falling, single point]"
S=C(Nc1ccccc1Cl)N1CCCC1,,"inconclusive: 3260 nM [falling, full curve, poor fit]"
Cc1nn(C)c(C)c1NC(=O)CCl,inconclusive: -0.506%,
O=C(N/N=C/c1cccc(O)c1)c1ccc(NC(=O)C2CCCCC2)cc1,,"inconclusive: 5.8 nM [falling, full curve, poor fit]"
CC(=O)c1cccc(N(C(=O)CNC(=O)c2ccco2)C(C(=O)NC2CCCC2)c2ccco2)c1 (stereo unspecified),inconclusive: 62.6%,
Cc1ccc2nc(NC(=S)NC(=O)c3ccc(OC(C)C)cc3)sc2c1,,"inconclusive: 23100 nM [activator, partial curve, poor fit]"
Cc1ccc(N2CC(C(=O)N3CCc4ccccc43)CC2=O)cc1 (stereo unspecified),inconclusive: -15.1%,
CC(NC(=O)c1ccc(S(=O)(=O)N(C)C)cc1)c1ccccc1 (stereo unspecified),,"inconclusive: 16400 nM [falling, partial curve, poor fit]"
CCc1ccccc1NNC(=O)CCc1ccccc1,,"inconclusive: 184 nM [falling, full curve, poor fit]"
Cc1cc(C)c(NC(=O)CO/N=C2\CCCc3nonc32)c(C)c1,inconclusive: 25.2%,
O=C(/C=C/c1ccco1)Nc1ccc2nn(-c3ccccc3)nc2c1,,"inconclusive: 18400 nM [falling, single point]"
Cc1cc(C(=O)N2CC=C(c3ccccc3)CC2)c2ccccc2n1,,"inconclusive: 6510 nM [activator, single point]"
CC(NC(=O)c1ccccc1)c1nnc(SCC(=O)Nc2nnc(C3CC3)s2)n1C (stereo unspecified),inconclusive: 34.5%,
CN1CCN(C(=O)c2cc3nc(-c4ccccc4)cc(-c4ccccc4)n3n2)CC1,,"inconclusive: 731 nM [activator, partial curve]"
O=C(O)c1ccc2c(c1)C(=O)/C(=C/c1ccccc1)C2=O,inconclusive: -16.1%,
COc1cccc(CNC(=O)CN(C)S(=O)(=O)c2ccc3c(c2)CC(C)N3C(C)=O)c1 (stereo unspecified),inconclusive: 87.6%,

SMILES,"lipid storage change, negative = inhibition",Potency
CCOC(=O)N1CCN(C(=O)CNC(=O)c2ccc(Cl)cc2)CC1,,"inconclusive: 32600 nM [activator, single point]"
CC(=O)N1CCN=C1SCc1cccc(C(F)(F)F)c1,inconclusive: 15.1%,
COc1ccc(C(NC(=O)CC(C)C)c2c(O)ccc3ccccc23)cc1 (stereo unspecified),inconclusive: -28.8%,
Cc1c(C)c2c(OCC(=O)NCC(O)c3ccccc3)cc3c(c2oc1=O)CCC(C)(C)O3 (stereo unspecified),inconclusive: 1.63%,
Cc1ccc(C(=O)Nc2c3c(nn2C(C)(C)C)CS(=O)(=O)C3)cc1C,inconclusive: 21.5%,
COc1ccc(NC(=O)CSC2=NC(=O)CC(C)=N2)cc1,,"inconclusive: 326 nM [activator, full curve, poor fit]"
CCn1c(CCNC(=O)c2ccc(Cl)cc2)n[nH]c1=S,,active: 1840 nM
CCOc1ccc(Cl)cc1CSc1n[nH]c(CC)n1,,"inconclusive: 1840 nM [activator, partial curve]"
COc1ccc(C(=O)NCC(c2ccco2)N2CCc3ccccc32)cc1 (stereo unspecified),,"inconclusive: 2590 nM [activator, full curve]"
Cn1c(=O)c2c(SCC(=O)NCc3ccco3)nc(-c3ccccc3Cl)nc2n(C)c1=O,,active: 8910 nM
O=C(NCCO)c1cc2c([nH]c3ccccc32)c(-c2ccccc2)n1,inactive: -0.328%,
Cc1coc(C)c1C(=O)CC1(O)C(=O)N(CCc2ccccc2)c2ccccc21 (stereo unspecified),inconclusive: 125%,
COc1ccccc1-[n+]1c(C)cc(/C=C2\Sc3ccccc3N2C)cc1C,,active: 82 nM
CCN(CC)CCNC(=O)c1ccc(NC(=O)c2c(C)nn(-c3ccc(F)cc3)c2Cl)cc1,,"inconclusive: 20600 nM [activator, single point]"
CCOC(=O)c1ccccc1Nc1cn(C(C)=O)c2ccccc12,,"inconclusive: 164 nM [activator, full curve, poor fit]"
O=C1CN(C(=O)c2c(F)cccc2F)C(c2ccc(F)cc2)c2cc(Br)ccc2N1 (stereo unspecified),inconclusive: -22.9%,
CCOc1ccc(OCC(=O)OCC(=O)Nc2ccccc2C#N)cc1,inconclusive,
O=C(c1cc(COc2cccc(C(F)(F)F)c2)on1)N1CCC(c2ccncc2)CC1,,"inconclusive: 731 nM [falling, partial curve, poor fit]"
COC(=O)c1cc(NC(=O)c2cc(-c3ccc(Cl)cc3)oc2C(F)(F)F)ccc1N1CCOCC1,inconclusive: 12.1%,
COc1ccc(-n2c(=O)c3ccccc3n(CC(=O)NC3CCCCC3)c2=O)c(OC)c1,inactive: 21.5%,
Cc1cc2nc3ccc(=[N+](C)C)cc-3sc2cc1N,,"inconclusive: 2310 nM [falling, full curve]"
CCCCCCc1ccc(N2C[C@H](CCCCC)[C@@H](CC(=O)NCc3ccc(OC)cc3)C2=O)cc1,inconclusive: -93.6%,
Cc1cccnc1NC(=O)c1cc2c(=O)oc3ccccc3c2s1,,"inconclusive: 920 nM [activator, full curve, poor fit]"
